Results on 1 molecule are retold here after doi:10.1101/2021.07.23.453513.

Amino acid sequences for entries named in this document (tags omitted).
UniProt Q9CQW9: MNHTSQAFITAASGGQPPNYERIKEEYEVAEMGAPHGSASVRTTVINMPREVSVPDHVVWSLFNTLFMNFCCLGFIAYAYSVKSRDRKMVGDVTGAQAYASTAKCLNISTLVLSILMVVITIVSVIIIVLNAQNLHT

This experiment deals with Interferon induced transmembrane protein 3 (Ifitm3) (mouse (endogenous in BM-DCs)) (UniProt Q9CQW9). In words: co-IP.

Results are given in words; binding and its absence hold for the method and conditions named. Binding seen in cells or lysates may run through a third protein. Some binding calls cover weakened binding; strength is not graded here.

B1: Nogo-B (reticulon 4 isoform) (protein, UniProt Q99P72-5 1-356)
chain: MEDIDQSSLVSSSADSPPRPPPAFKYQFVTEPEDEEDEEDEEEEEDDEDLEELEVLERKPAAGLSAAPVPPAAAPLLDFSSDSVPPAPRGPLPAAPPTAPERQPSWERSPAASAPSLPPAAAVLPSKLPEDDEPPARPPAPAGASPLAEPAAPPSTPAAPKRRGSGSVVVDLLYWRDIKKTGVVFGASLFLLLSLTVFSIVSVTAYIALALLSVTISFRIYKGVIQAIQKSDEGHPFRAYLESEVAISEELVQKYSNSALGHVNSTIKELRRLFLVDDLVDSLKFAVLMWVFTYVGALFNGLTLLILALISLFSIPVIYERHQAQIDHYLGLANKSVKDAMAKIQAKIPGLKRKAE
As to B1, the binding entry is “binds”.
